PubChem BioAssay AID652272 – Drosophila RNAi Screening Center – 2013

Assay: 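Finding fly genes that regulate Hedgehog signal transduction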 (primary screen)
System: Drosophila clone 8 (Cl8) cells
Knock-down reagent: long dsRNA against Drosophila genes
Measured: 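Firefly light from a Hedgehog-responsive ptc promoter reporter and Renilla reference light, both read on a plate reader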
Direction: firefly Hh reporter signal: higher = more ptc reporter light; Renilla reference signal: higher = more Renilla control light
Call rule: 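Hit when the z-score averaged over two replicates is under -2 or over +3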
Calls: active = hit: reporter lowered or raised; inactive = not a hit
In all, the deposit lists about 21,000 reagents; shown is an unselected part of those with a known target gene and a result. Over the whole deposit, 503 (2.4%) were called active. 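Raw plate light values, not normalised; calls rest on replicate z-scores that were not deposited; hits include reporter decreases as well as increases.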 Reagents against one gene are numbered here. No sequences are given here. Not given: the amount of reagent, the time to read-out.

Gene	reagent	firefly Hh reporter signal, replicate 1	firefly Hh reporter signal, replicate 2	firefly Hh reporter signal, replicate 3	Renilla reference signal, replicate 1	Renilla reference signal, replicate 2	call
TfIIEbeta	1	84871	38564		2331	1081	inactive
Art9	1	92301	81483		3526	2756	inactive
CG10333	1	68482	52921		3453	2613	inactive
CG1572	1	1.61e5	1.04e5		3768	2736	inactive
CG4835	1	27692	35383		5340	3216	inactive
noi	1	64867	35200		4160	2391	active
CG9123	1	1.01e5	2.11e5		3730	10032	inactive
Pebp1	1	7.74e5	1.43e5		51965	365	inactive
CG3817	1	1.04e5	42608		5075	2573	inactive
Eig71Ej	1	1.26e5			5176	3688	inactive
CG14511	1	67489	92308		1704	2384	inactive
CG5023	1	5.42e5	86022		29328	2373	inactive
CG10317	1	1.07e5	92268		2443	2356	inactive
hdly	1	6.27e5	1.10e5		32299	3026	inactive
Snmp2	1	68149	1.08e5		6529	5969	inactive
Snmp2	2	54137	69920		4283	4237	inactive

Next part (5 carried over from the part before).
Gene	reagent	firefly Hh reporter signal, replicate 1	firefly Hh reporter signal, replicate 2	firefly Hh reporter signal, replicate 3	Renilla reference signal, replicate 1	Renilla reference signal, replicate 2	call
CG5023	1	5.42e5	86022		29328	2373	inactive
CG10317	1	1.07e5	92268		2443	2356	inactive
hdly	1	6.27e5	1.10e5		32299	3026	inactive
Snmp2	1	68149	1.08e5		6529	5969	inactive
Snmp2	2	54137	69920		4283	4237	inactive
CG10943	1	48933	58845	57607	4741	4373	inactive
CG4306	1	87048			5736	2544	inactive
ASPP	1	72283	32951		1946	2941	inactive
CG15403	1	1.37e5	63628		3232	6983	inactive
CG14892	1	67277	85456		2458	2276	inactive
CR40354	1	6.56e5	1.93e5		34808	4087	inactive
CG15395	1	1.28e5	50247		3108	1277	inactive
Lim3	1	1.23e5	84258		3409	7716	inactive
Lim3	2	35420	22180		1004	2792	inactive
coil	1	65552	48921		2713	2016	inactive
lectin-28C	1	94642	43755		2576	4149	inactive
Kah	1	1.31e5	2.46e5		3697	11584	inactive
Kah	2	1.07e5	57120		3251	4752	inactive
Lcp65Ae	1	52934	38896		5440	2985	inactive
AANATL7	1	81000	2.03e5		2953	8706	inactive
CG15337	1	1.56e5	5.11e5		5523	15589	inactive
Spp	1	50219	65755		2390	2752	inactive
CG14196	1	68744	1.81e5		1840	6819	inactive
CG10126	1	1.61e5	1.10e5		6016	4180	inactive
Gbs-70E	1	1.08e5			4156	2880	inactive
CG4914	1	1.00e5			3271	2804	inactive
Ttc26	1	5.76e5	82770		3541	3541	inactive
Nadk1a	1	1.60e5	3.66e5		4331	14459	inactive
Nadk1a	2	1.53e5	94342		5968	3616	inactive
